For at least one compound, name, drawing or mass did not settle the structure.
Assays:
Male SD rats [1] = experiment: Inhibitory action of reperfusion arrhythmia (Evaluation Example 5; coronary artery ligation 5 minutes, reperfusion 10 minutes); type: in vivo, rat; settings: result in words, versus control group
Method: (§1) Male SD rats of 8-12 week age were anesthetized with pentobarbital and subjected to thoracotomy under artificial respiration. The left anterior descending coronary artery of each rat was ligated for 5 minutes and then subjected to reperfusion for 10 minutes. An electrocardiograph in standard bipolar limb lead II was recorded for each rat to examine the occurrence of ventricular arrhythmia. Each test compound was intravenously administered 5 minutes before the obstruction of coronary artery. For comparison, the same evaluation was conducted also on the 5-(4-methoxy-3-sulfophenyl)-3H-1,2-dithiole-3-thione sodium salt described in Eur. J. Med. Chem. 15, 405 (1980). [drawing 95]

Male SD rats [2] = experiment: Inhibitory action for reperfusion arrhythmia (Evaluation Example 2; coronary artery ligation 5 minutes, reperfusion 10 minutes); type: in vivo, rat; settings: result in words, versus control group
Method: as §1, with “A” for “Each”, “93]” for “95]”

SMILES: COc1ccc(-c2cc(=S)ss2)cc1S(=O)(=O)[O-].[Na+] [Compound in literature, 5-(4-methoxy-3-sulfophenyl)-3H-1,2-dithiole-3-thione sodium salt, reference compound]
- reduction for ventricular fibrillation incidence or mortality (Male SD rats [1]): no significant reduction
- reduction for ventricular fibrillation incidence or mortality (Male SD rats [2]): no significant reduction
